Measurements reported in PubChem BioAssay AID1508597 (Cure First, 2020).
This is an unselected part of the about 2,100 reagents, in one setting of the screen. 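Calls flag viability under 80% in either arm, not effects specific to rucaparib; the reference for percent is not stated.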 Entries without a mark were called inactive. A reagent listed more than once was tested more than once; the source does not tell the runs apart. Not given: the 100% reference.

Aim: 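Survival screen with siRNA in ovarian cancer cells derived from patients, with or without rucaparib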 (primary screen)
System: human ovarian carcinoma lines grown from tumours: OCI-P5x (papillary serous) and OCI-C5x (clear cell)
Reagents: siRNA pool against human genes, 1.25 pmol siRNA per well
Time to read-out: 72 h or 96 h, depending on the cell culture
Conditions: rucaparib 20 µM (about IC30) or vehicle, present until read-out
Rucaparib or vehicle: Rucaparib
Cell line: OCI-C5x (clear cell)
Read-out: 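ATP luminescence measured at 72 or 96 h according to the culture, then normalised and expressed as percent viability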
Reading the numbers: viability, normalised: higher = more viable cells remaining
Hit rule: 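Active when normalised viability falls below 80 percent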
Calls: active = viability under 80%; inactive = viability 80% or more

Target gene | technical replicate | viability, normalised (%)
GRK2 (GeneID 156) | 1 | 53.4 (active)
GRK2 (GeneID 156) | 2 | 45.2 (active)
GRK2 (GeneID 156) | 3 | 59.7 (active)
KDM5C (GeneID 8242) | 1 | 23.7 (active)
KDM5C (GeneID 8242) | 2 | 22.7 (active)
KDM5C (GeneID 8242) | 3 | 18.6 (active)
MSX1 (GeneID 4487) | 1 | 46.9 (active)
MSX1 (GeneID 4487) | 2 | 42.5 (active)
MSX1 (GeneID 4487) | 3 | 46.5 (active)
EZH1 (GeneID 2145) | 1 | 37.7 (active)
EZH1 (GeneID 2145) | 2 | 27 (active)
EZH1 (GeneID 2145) | 3 | 31.3 (active)
DNA2 (GeneID 1763) | 1 | 83
DNA2 (GeneID 1763) | 2 | 99.7
DNA2 (GeneID 1763) | 3 | 89.5
CDC42BPG (GeneID 55561) | 1 | 66.2 (active)
CDC42BPG (GeneID 55561) | 2 | 49.9 (active)
CDC42BPG (GeneID 55561) | 3 | 52 (active)
CDC42BPB (GeneID 9578) | 1 | 81.9
CDC42BPB (GeneID 9578) | 2 | 86.2
CDC42BPB (GeneID 9578) | 3 | 43.2 (active)
HNRNPU (GeneID 3192) | 1 | 61.2 (active)
HNRNPU (GeneID 3192) | 2 | 35.4 (active)
HNRNPU (GeneID 3192) | 3 | 47.5 (active)
PRDM15 (GeneID 63977) | 1 | 45.5 (active)
PRDM15 (GeneID 63977) | 2 | 46.4 (active)
PRDM15 (GeneID 63977) | 3 | 30.4 (active)
LEF1 (GeneID 51176) | 1 | 46.8 (active)
LEF1 (GeneID 51176) | 2 | 33.3 (active)
LEF1 (GeneID 51176) | 3 | 43.8 (active)
MPP4 (GeneID 58538) | 1 | 45.9 (active)
MPP4 (GeneID 58538) | 2 | 48.5 (active)
MPP4 (GeneID 58538) | 3 | 57.3 (active)
PRPF19 (GeneID 27339) | 1 | 50.3 (active)
PRPF19 (GeneID 27339) | 1 | 30.4 (active)
PRPF19 (GeneID 27339) | 2 | 49.5 (active)
PRPF19 (GeneID 27339) | 2 | 37.4 (active)
PRPF19 (GeneID 27339) | 3 | 49.3 (active)
PRPF19 (GeneID 27339) | 3 | 38.4 (active)
ERBB2 (GeneID 2064) | 1 | 59.3 (active)
ERBB2 (GeneID 2064) | 2 | 45.7 (active)
ERBB2 (GeneID 2064) | 3 | 44.8 (active)
PRC1 (GeneID 9055) | 1 | 60.5 (active)
PRC1 (GeneID 9055) | 2 | 59 (active)
PRC1 (GeneID 9055) | 3 | 55.6 (active)
CBX6 (GeneID 23466) | 1 | 65.6 (active)
CBX6 (GeneID 23466) | 2 | 29.5 (active)
CBX6 (GeneID 23466) | 3 | 55.5 (active)
CLDN17 (GeneID 26285) | 1 | 39.4 (active)
CLDN17 (GeneID 26285) | 2 | 46.5 (active)
CLDN17 (GeneID 26285) | 3 | 32.1 (active)
DPH3 (GeneID 285381) | 1 | 32.3 (active)
DPH3 (GeneID 285381) | 2 | 38.6 (active)
DPH3 (GeneID 285381) | 3 | 41.1 (active)
DDX1 (GeneID 1653) | 1 | 58.2 (active)
DDX1 (GeneID 1653) | 1 | 44.6 (active)
DDX1 (GeneID 1653) | 2 | 44.7 (active)
DDX1 (GeneID 1653) | 2 | 40.1 (active)
DDX1 (GeneID 1653) | 3 | 25.2 (active)
DDX1 (GeneID 1653) | 3 | 54 (active)
